Results on three molecules are retold here after article PMC10618255, “Cryo-EM structure of human O-GlcNAcylation enzyme pair OGT-OGA complex” (Nature Communications, 2023).

Results are given in words; binding and its absence hold for the method and conditions named. For some of these results: In cells and extracts the contact can be indirect. Some binding calls cover weakened binding; strength is not graded here. Where a sequence is shown, tags or fusion partners need not be part of it.

The target of assay [1] is T1, Flag-OGA (human, pCS2) (human) (UniProt O60502).
T1 sequence: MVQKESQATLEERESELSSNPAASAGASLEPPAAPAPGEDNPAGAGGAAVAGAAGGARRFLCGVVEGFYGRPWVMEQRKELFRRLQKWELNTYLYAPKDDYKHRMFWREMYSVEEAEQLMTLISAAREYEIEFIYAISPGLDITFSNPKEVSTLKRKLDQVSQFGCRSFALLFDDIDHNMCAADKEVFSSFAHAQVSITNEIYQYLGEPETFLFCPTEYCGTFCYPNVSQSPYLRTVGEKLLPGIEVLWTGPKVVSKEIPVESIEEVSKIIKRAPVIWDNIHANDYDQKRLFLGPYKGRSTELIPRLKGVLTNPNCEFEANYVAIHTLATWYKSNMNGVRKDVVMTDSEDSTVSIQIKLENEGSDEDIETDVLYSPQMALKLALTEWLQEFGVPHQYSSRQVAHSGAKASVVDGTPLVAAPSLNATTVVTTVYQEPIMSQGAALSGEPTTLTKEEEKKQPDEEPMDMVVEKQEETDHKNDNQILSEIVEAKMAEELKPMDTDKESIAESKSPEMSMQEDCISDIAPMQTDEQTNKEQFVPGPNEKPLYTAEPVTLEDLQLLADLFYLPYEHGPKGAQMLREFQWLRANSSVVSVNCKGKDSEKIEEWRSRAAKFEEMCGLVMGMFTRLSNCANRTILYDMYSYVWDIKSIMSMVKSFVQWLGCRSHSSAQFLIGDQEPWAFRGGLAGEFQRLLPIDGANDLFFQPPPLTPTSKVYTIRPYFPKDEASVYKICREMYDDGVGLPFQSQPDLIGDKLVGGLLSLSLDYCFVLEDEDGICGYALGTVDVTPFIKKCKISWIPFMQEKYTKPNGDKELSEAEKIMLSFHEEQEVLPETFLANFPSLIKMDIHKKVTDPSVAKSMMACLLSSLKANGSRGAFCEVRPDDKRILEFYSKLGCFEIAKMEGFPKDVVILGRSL
The assay is described as follows: co-IP; 293FT cells co-transfected with pCS2-Myc-OGT WT or mutant and pCS2-Flag-OGA; lysate in TENT buffer (25 mM Tris pH 7.4, 150 mM NaCl, 0.5% TritonX100, 1 mM EDTA); anti-Myc and anti-Flag magnetic beads; western blot. For orientation: A western blot detects proteins with antibodies after separation by electrophoresis.

Assay [2] deals with T2, Myc-OGT WT (human, pCS2) (human) (UniProt O15294).
T2 sequence: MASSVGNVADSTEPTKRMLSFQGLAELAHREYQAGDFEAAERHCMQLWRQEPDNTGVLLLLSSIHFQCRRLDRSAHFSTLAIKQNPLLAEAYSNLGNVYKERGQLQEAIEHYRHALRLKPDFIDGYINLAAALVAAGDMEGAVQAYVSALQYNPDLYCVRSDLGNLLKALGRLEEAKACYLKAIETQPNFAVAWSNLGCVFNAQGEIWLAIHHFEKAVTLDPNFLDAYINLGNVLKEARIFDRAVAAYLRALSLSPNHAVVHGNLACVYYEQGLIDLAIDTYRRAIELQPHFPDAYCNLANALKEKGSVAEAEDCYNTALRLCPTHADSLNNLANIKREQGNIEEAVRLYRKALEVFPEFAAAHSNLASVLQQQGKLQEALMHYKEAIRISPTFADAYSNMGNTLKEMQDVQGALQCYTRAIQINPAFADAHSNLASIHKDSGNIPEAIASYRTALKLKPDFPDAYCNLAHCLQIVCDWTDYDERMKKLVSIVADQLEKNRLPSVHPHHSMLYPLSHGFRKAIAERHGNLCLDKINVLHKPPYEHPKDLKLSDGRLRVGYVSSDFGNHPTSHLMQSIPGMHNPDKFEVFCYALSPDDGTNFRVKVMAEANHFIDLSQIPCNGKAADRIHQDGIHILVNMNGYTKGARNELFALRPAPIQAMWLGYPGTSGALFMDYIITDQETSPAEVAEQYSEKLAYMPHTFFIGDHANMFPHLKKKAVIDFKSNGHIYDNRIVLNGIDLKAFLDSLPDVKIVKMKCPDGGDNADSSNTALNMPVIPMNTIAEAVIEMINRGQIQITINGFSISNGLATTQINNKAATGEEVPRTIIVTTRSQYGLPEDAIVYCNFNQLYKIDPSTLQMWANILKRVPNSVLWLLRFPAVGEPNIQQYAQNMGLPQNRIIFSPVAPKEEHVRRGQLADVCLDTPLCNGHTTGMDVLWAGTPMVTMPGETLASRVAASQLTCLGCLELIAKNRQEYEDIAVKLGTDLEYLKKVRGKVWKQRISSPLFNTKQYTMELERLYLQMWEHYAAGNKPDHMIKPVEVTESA
Described as above.

The target of assay [3] is T3, full-length human OGT (O-GlcNAc transferase), C-terminal His6 (human) (UniProt O15294).
T3 sequence: T2 sequence
Put plainly: SEC; recombinant human OGT and OGA on size exclusion chromatography (Superose 6 10/300; 25 mM HEPES pH 7.4, 100 mM NaCl, 2 mM DTT, 0.05% NP40); both purified. For orientation: In gel filtration, larger molecules generally elute earlier.

Assay [4] addresses T3, full-length human OGT (O-GlcNAc transferase), C-terminal His6 (human). Put plainly: cryo-EM structure; single-particle cryo-EM of the OGT-OGA complex co-expressed in E. coli and purified, incubated with 1 mg/ml UDP-GlcNAc on ice; conformation II at 3.92 Å; both purified.

B1: full-length human OGT (O-GlcNAc transferase), C-terminal His6 (enzyme, UniProt O15294 1-1046, looked up)
chain: T2 sequence
notes: human O-GlcNAc transferase (OGT), full length, UniProt O15294; Scissor-shaped homodimer by cryo-EM; also called OGT WT; His6-tagged OGT; source: E. coli BL21 (DE3), purified (Ni-NTA, Resource Q, Superose 6); for the OGT-OGA complex co-expressed with OGA in BL21 (DE3); not shown: His6, C-terminal, kept
Take B1: the binding result in assay [1] is “binds”.

B2: Flag-OGA (human, pCS2) (enzyme, UniProt O60502 1-916)
chain: T1 sequence
On to B2, for which the binding entry in assay [2] is on record as “binds”.

B3: full-length human OGA (O-GlcNAcase) (enzyme, UniProt O60502 1-916)
chain: T1 sequence
As for B3, the binding result in assay [3] and in assay [4] was “binds” each time.
